Laboratory results published in article PMC10267134.
No constants are given. Whether binding was seen depends on the method and setting. In cells and extracts the contact can be indirect. Some binding calls cover weakened binding; strength is not graded here.

Sequences of proteins named here, by UniProt entry; tags and fusion partners are left off. A change or cut given only in a name is not applied to a line headed by its entry. A line that says so, or that is headed by a name, gives the form on record, which may keep a tag or linker.
Flag-SMURF1 (Q9HCE7, form named): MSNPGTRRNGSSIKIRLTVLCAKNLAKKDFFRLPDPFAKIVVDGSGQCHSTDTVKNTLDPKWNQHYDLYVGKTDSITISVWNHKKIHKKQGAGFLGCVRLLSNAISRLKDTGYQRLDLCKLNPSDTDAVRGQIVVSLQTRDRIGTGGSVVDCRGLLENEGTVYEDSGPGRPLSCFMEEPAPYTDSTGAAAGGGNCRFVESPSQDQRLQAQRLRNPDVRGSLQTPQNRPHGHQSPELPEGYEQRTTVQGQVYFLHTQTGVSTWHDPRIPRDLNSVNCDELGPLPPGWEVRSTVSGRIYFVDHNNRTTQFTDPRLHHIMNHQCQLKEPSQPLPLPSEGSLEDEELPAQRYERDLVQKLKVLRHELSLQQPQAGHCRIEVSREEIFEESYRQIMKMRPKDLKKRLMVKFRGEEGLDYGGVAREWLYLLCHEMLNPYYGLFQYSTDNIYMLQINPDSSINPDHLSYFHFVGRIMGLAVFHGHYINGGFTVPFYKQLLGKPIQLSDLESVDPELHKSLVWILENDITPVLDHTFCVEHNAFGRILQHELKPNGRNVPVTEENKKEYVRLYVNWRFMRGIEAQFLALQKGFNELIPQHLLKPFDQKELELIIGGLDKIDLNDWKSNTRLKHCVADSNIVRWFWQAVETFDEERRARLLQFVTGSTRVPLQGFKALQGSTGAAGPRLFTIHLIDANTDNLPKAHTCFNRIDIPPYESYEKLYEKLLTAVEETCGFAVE
UniProt Q14145: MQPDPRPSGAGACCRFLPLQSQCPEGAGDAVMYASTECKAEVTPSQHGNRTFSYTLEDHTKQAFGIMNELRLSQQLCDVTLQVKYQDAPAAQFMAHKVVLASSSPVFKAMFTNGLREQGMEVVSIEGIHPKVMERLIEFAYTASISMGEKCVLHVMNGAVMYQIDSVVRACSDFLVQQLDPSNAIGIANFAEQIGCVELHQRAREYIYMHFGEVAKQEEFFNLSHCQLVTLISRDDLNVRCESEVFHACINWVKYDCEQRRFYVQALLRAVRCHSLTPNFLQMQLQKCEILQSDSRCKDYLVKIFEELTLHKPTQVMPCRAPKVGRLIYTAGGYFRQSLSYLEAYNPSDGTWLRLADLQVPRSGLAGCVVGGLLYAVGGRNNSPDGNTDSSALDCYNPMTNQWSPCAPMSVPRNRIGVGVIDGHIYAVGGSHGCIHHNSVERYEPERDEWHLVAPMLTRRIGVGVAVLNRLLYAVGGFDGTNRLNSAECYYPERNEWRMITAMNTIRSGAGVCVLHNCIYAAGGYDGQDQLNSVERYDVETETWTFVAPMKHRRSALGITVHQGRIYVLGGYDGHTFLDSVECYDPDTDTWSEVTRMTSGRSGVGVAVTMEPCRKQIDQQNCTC

Assays:
HA-SMURF1 (human) = HA-SMURF1 (human) (UniProt Q9HCE7); assay: co-IP; HA-SMURF1 and Flag-KEAP1 in LN229 cells, with or without TG (1 μM, 12 h); lysis in 50 mM Tris pH 8.0, 150 mM NaCl, 1% NP40, 0.5% sodium deoxycholate; protein G agarose; which tag was precipitated is not told
Flag-SMURF1 (human) = Flag-SMURF1 (human) (UniProt Q9HCE7); assay: co-IP; LN229 cells overexpressing GFP-KEAP1, transfected with Flag-SMURF1 or its deletion constructs; immunoprecipitation with Flag antibody, blots for GFP and Flag

| binding (HA-SMURF1 (human)) | binding (Flag-SMURF1 (human)) | Substance |
| --- | --- | --- |
| binds |  | Flag-KEAP1 (from UniProt Q14145 1-624) |
|  | binds | GFP-KEAP1 (from UniProt Q14145 1-624) |
